The record followed here is PMC11412891.

B1: EAPP (protein, UniProt Q56P03 1-285)
chain: MNRLPDDYDPYAVEEPSDEEPALSSSEDEVDVLLHGTPDQKRKLIRECLTGESESSSEDEFEKEMEAELNSTMKTMEDKLSSLGTGSSSGNGKVATAPTRYYDDIYFDSDSEDEDRAVQVTKKKKKKQHKIPTNDELLYDPEKDNRDQAWVDAQRRGYHGLGPQRSRQQQPVPNSDAVLNCPACMTTLCLDCQRHESYKTQYRAMFVMNCSINKEEVLRYKASENRKKRRVHKKMRSNREDAAEKAETDVEEIYHPVMCTECSTEVAVYDKDEVFHFFNVLASHS
B2: USP39 - SAD1 (protein, UniProt Q53GS9 1-565)
chain: MSGRSKRESRGSTRGKRESESRGSSGRVKRERDREREPEAASSRGSPVRVKREFEPASAREAPASVVPFVRVKREREVDEDSEPEREVRAKNGRVDSEDRRSRHCPYLDTINRSVLDFDFEKLCSISLSHINAYACLVCGKYFQGRGLKSHAYIHSVQFSHHVFLNLHTLKFYCLPDNYEIIDSSLEDITYVLKPTFTKQQIANLDKQAKLSRAYDGTTYLPGIVGLNNIKANDYANAVLQALSNVPPLRNYFLEEDNYKNIKRPPGDIMFLLVQRFGELMRKLWNPRNFKAHVSPHEMLQAVVLCSKKTFQITKQGDGVDFLSWFLNALHSALGGTKKKKKTIVTDVFQGSMRIFTKKLPHPDLPAEEKEQLLHNDEYQETMVESTFMYLTLDLPTAPLYKDEKEQLIIPQVPLFNILAKFNGITEKEYKTYKENFLKRFQLTKLPPYLIFCIKRFTKNNFFVEKNPTIVNFPITNVDLREYLSEEVQAVHKNTTYDLIANIVHDGKPSEGSYRIHVLHHGTGKWYELQDLQVTDILPQMITLSEAYIQIWKRRDNDETNQQGA
B3: DHX38 - Prp16 (protein, UniProt Q92620 1-1227)
chain: MGDTSEDASIHRLEGTDLDCQVGGLICKSKSAASEQHVFKAPAPRPSLLGLDLLASLKRREREEKDDGEDKKKSKVSSYKDWEESKDDQKDAEEEGGDQAGQNIRKDRHYRSARVETPSHPGGVSEEFWERSRQRERERREHGVYASSKEEKDWKKEKSRDRDYDRKRDRDERDRSRHSSRSERDGGSERSSRRNEPESPRHRPKDAATPSRSTWEEEDSGYGSSRRSQWESPSPTPSYRDSERSHRLSTRDRDRSVRGKYSDDTPLPTPSYKYNEWADDRRHLGSTPRLSRGRGRREEGEEGISFDTEEERQQWEDDQRQADRDWYMMDEGYDEFHNPLAYSSEDYVRRREQHLHKQKQKRISAQRRQINEDNERWETNRMLTSGVVHRLEVDEDFEEDNAAKVHLMVHNLVPPFLDGRIVFTKQPEPVIPVKDATSDLAIIARKGSQTVRKHREQKERKKAQHKHWELAGTKLGDIMGVKKEEEPDKAVTEDGKVDYRTEQKFADHMKRKSEASSEFAKKKSILEQRQYLPIFAVQQELLTIIRDNSIVIVVGETGSGKTTQLTQYLHEDGYTDYGMIGCTQPRRVAAMSVAKRVSEEMGGNLGEEVGYAIRFEDCTSENTLIKYMTDGILLRESLREADLDHYSAIIMDEAHERSLNTDVLFGLLREVVARRSDLKLIVTSATMDAEKFAAFFGNVPIFHIPGRTFPVDILFSKTPQEDYVEAAVKQSLQVHLSGAPGDILIFMPGQEDIEVTSDQIVEHLEELENAPALAVLPIYSQLPSDLQAKIFQKAPDGVRKCIVATNIAETSLTVDGIMFVIDSGYCKLKVFNPRIGMDALQIYPISQANANQRSGRAGRTGPGQCFRLYTQSAYKNELLTTTVPEIQRTNLANVVLLLKSLGVQDLLQFHFMDPPPEDNMLNSMYQLWILGALDNTGGLTSTGRLMVEFPLDPALSKMLIVSCDMGCSSEILLIVSMLSVPAIFYRPKGREEESDQIREKFAVPESDHLTYLNVYLQWKNNNYSTIWCNDHFIHAKAMRKVREVRAQLKDIMVQQRMSLASCGTDWDIVRKCICAAYFHQAAKLKGIGEYVNIRTGMPCHLHPTSSLFGMGYTPDYIVYHELVMTTKEYMQCVTAVDGEWLAELGPMFYSVKQAGKSRQENRRRAKEEASAMEEEMALAEEQLRARRQEQEKRSPLGSVRSTKIYTPGRKEQGEPMTPRRTPARFGL
B4: BRIX1 (protein, UniProt Q8TDN6 1-353)
chain: MAATKRKRRGGFAVQAKKPKRNEIDAEPPAKRHATAEEVEEEERDRIPGPVCKGKWKNKERILIFSSRGINFRTRHLMQDLRMLMPHSKADTKMDRKDKLFVINEVCEMKNCNKCIYFEAKKKQDLYMWLSNSPHGPSAKFLVQNIHTLAELKMTGNCLKGSRPLLSFDPAFDELPHYALLKELLIQIFSTPRYHPKSQPFVDHVFTFTILDNRIWFRNFQIIEEDAALVEIGPRFVLNLIKIFQGSFGGPTLYENPHYQSPNMHRRVIRSITAAKYREKQQVKDVQKLRKKEPKTLLPHDPTADVFVTPAEEKPIEIQWVKPEPKVDLKARKKRIYKRQRKMKQRMDSGKTK
B5: AQR (protein, UniProt O60306 1-1485)
chain: MAAPAQPKKIVAPTVSQINAEFVTQLACKYWAPHIKKKSPFDIKVIEDIYEKEIVKSRFAIRKIMLLEFSQYLENYLWMNYSPEVSSKAYLMSICCMVNEKFRENVPAWEIFKKKPDHFPFFFKHILKAALAETDGEFSLHEQTVLLLFLDHCFNSLEVDLIRSQVQQLISLPMWMGLQLARLELELKKTPKLRKFWNLIKKNDEKMDPEAREQAYQERRFLSQLIQKFISVLKSVPLSEPVTMDKVHYCERFIELMIDLEALLPTRRWFNTILDDSHLLVHCYLSNLVRREEDGHLFSQLLDMLKFYTGFEINDQTGNALTENEMTTIHYDRITSLQRAAFAHFPELYDFALSNVAEVDTRESLVKFFGPLSSNTLHQVASYLCLLPTLPKNEDTTFDKEFLLELLVSRHERRISQIQQLNQMPLYPTEKIIWDENIVPTEYYSGEGCLALPKLNLQFLTLHDYLLRNFNLFRLESTYEIRQDIEDSVSRMKPWQSEYGGVVFGGWARMAQPIVAFTVVEVAKPNIGENWPTRVRADVTINLNVRDHIKDEWEGLRKHDVCFLITVRPTKPYGTKFDRRRPFIEQVGLVYVRGCEIQGMLDDKGRVIEDGPEPRPNLRGESRTFRVFLDPNQYQQDMTNTIQNGAEDVYETFNIIMRRKPKENNFKAVLETIRNLMNTDCVVPDWLHDIILGYGDPSSAHYSKMPNQIATLDFNDTFLSIEHLKASFPGHNVKVTVEDPALQIPPFRITFPVRSGKGKKRKDADVEDEDTEEAKTLIVEPHVIPNRGPYPYNQPKRNTIQFTHTQIEAIRAGMQPGLTMVVGPPGTGKTDVAVQIISNIYHNFPEQRTLIVTHSNQALNQLFEKIMALDIDERHLLRLGHGEEELETEKDFSRYGRVNYVLARRIELLEEVKRLQKSLGVPGDASYTCETAGYFFLYQVMSRWEEYISKVKNKGSTLPDVTEVSTFFPFHEYFANAPQPIFKGRSYEEDMEIAEGCFRHIKKIFTQLEEFRASELLRSGLDRSKYLLVKEAKIIAMTCTHAALKRHDLVKLGFKYDNILMEEAAQILEIETFIPLLLQNPQDGFSRLKRWIMIGDHHQLPPVIKNMAFQKYSNMEQSLFTRFVRVGVPTVDLDAQGRARASLCNLYNWRYKNLGNLPHVQLLPEFSTANAGLLYDFQLINVEDFQGVGESEPNPYFYQNLGEAEYVVALFMYMCLLGYPADKISILTTYNGQKHLIRDIINRRCGNNPLIGRPNKVTTVDRFQGQQNDYILLSLVRTRAVGHLRDVRRLVVAMSRARLGLYIFARVSLFQNCFELTPAFSQLTARPLHLHIIPTEPFPTTRKNGERPSHEVQIIKNMPQMANFVYNMYMHLIQTTHHYHQTLLQLPPAMVEEGEEVQNQETELETEEEAMTVQADIIPSPTDTSCRQETPAFQTDTTPSETGATSTPEAIPALSETTPTVVGAVSAPAEANTPQDATSAPEETK
B6: SART1 (protein, UniProt O43290 1-800)
chain: MGSSKKHRGEKEAAGTTAAAGTGGATEQPPRHREHKKHKHRSGGSGGSGGERRKRSRERGGERGSGRRGAEAEARSSTHGRERSQAEPSERRVKREKRDDGYEAAASSKTSSGDASSLSIEETNKLRAKLGLKPLEVNAIKKEAGTKEEPVTADVINPMALRQREELREKLAAAKEKRLLNQKLGKIKTLGEDDPWLDDTAAWIERSRQLQKEKDLAEKRAKLLEEMDQEFGVSTLVEEEFGQRRQDLYSARDLQGLTVEHAIDSFREGETMILTLKDKGVLQEEEDVLVNVNLVDKERAEKNVELRKKKPDYLPYAEDESVDDLAQQKPRSILSKYDEELEGERPHSFRLEQGGTADGLRERELEEIRAKLRLQAQSLSTVGPRLASEYLTPEEMVTFKKTKRRVKKIRKKEKEVVVRADDLLPLGDQTQDGDFGSRLRGRGRRRVSEVEEEKEPVPQPLPSDDTRVENMDISDEEEGGAPPPGSPQVLEEDEAELELQKQLEKGRRLRQLQQLQQLRDSGEKVVEIVKKLESRQRGWEEDEDPERKGAIVFNATSEFCRTLGEIPTYGLAGNREEQEELMDFERDEERSANGGSESDGEENIGWSTVNLDEEKQQQDFSASSTTILDEEPIVNRGLAAALLLCQNKGLLETTVQKVARVKAPNKSLPSAVYCIEDKMAIDDKYSRREEYRGFTQDFKEKDGYKPDVKIEYVDETGRKLTPKEAFRQLSHRFHGKGSGKMKTERRMKKLDEEALLKKMSSSDTPLGTVALLQEKQKAQKTPYIVLSGSGKSMNANTITK
B7: BZW1 (protein, UniProt Q7L1Q6 1-419)
chain: MNNQKQQKPTLSGQRFKTRKRDEKERFDPTQFQDCIIQGLTETGTDLEAVAKFLDASGAKLDYRRYAETLFDILVAGGMLAPGGTLADDMMRTDVCVFAAQEDLETMQAFAQVFNKLIRRYKYLEKGFEDEVKKLLLFLKGFSESERNKLAMLTGVLLANGTLNASILNSLYNENLVKEGVSAAFAVKLFKSWINEKDINAVAASLRKVSMDNRLMELFPANKQSVEHFTKYFTEAGLKELSEYVRNQQTIGARKELQKELQEQMSRGDPFKDIILYVKEEMKKNNIPEPVVIGIVWSSVMSTVEWNKKEELVAEQAIKHLKQYSPLLAAFTTQGQSELTLLLKIQEYCYDNIHFMKAFQKIVVLFYKAEVLSEEPILKWYKDAHVAKGKSVFLEQMKKFVEWLKNAEEESESEAEEGD

Results are given in words; binding and its absence hold for the method and conditions named. Binding seen in cells or lysates may run through a third protein. Some binding calls cover weakened binding; strength is not graded here. Sequences can lack the tags named with a protein.

This assay deals with T1, CD2 Binding Protein 2 (CD2BP2/U5-52K), FLAG-tagged (human) (UniProt O95400).
T1 sequence: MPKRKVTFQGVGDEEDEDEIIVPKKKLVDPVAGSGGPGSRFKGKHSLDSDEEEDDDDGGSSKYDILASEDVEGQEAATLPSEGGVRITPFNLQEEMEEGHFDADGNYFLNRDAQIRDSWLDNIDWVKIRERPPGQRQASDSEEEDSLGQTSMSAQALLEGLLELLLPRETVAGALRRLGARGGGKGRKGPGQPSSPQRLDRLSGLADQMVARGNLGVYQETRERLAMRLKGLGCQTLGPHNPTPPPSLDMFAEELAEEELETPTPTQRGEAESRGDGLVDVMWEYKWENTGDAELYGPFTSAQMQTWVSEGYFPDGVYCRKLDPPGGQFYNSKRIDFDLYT
As to the kind of experiment: cross-linking; anti-FLAG IP of CD2BP2-FLAG from HEK293T CD2BP2-/- lysate (~100 mg protein), on-bead crosslinking with DSSO, tryptic digest, LC-MS2-MS3, XlinkX, 1 % FDR; two technical and two biological replicates.
As for B1, the binding entry is listed as “binds”.

For the molecule B2, the binding entry was “binds”.

Consider B3, for which the binding entry is “binds”.

For the molecule B4, the binding result is “binds”.

For B5, the binding entry is on record as “binds”.

B6: the binding result is listed as “binds”.

As for B7, the binding result is listed as “binds”.
